In the series the test system is CA1 neurons. Nature of the series: Sub-chronic in vivo treatment of 3×Tg-AD mice, passive membrane properties from CA1 neurons. As to conditions: 10 mg/kg ip, 4 weeks. Set-up: species or system mouse.

The values that follow come from US10011578B2, “Compounds for stabilizing ryanodine receptors from aberrant levels of calcium release” (Rosalind Franklin University of Medicine and Science, priority 2013, dated 2018).

For the compound `O=C(N/N=C/c1ccc(-c2ccc(Cl)cc2)o1)N/N=C/c1ccc(-c2ccc(Cl)cc2)o1` [CK017], the RMP is −69.0 ± 0.2 mV.
`O=C(Cc1ccccc1)N/N=C/c1ccc(-c2ccccc2)o1` [CK013] registered an RMP of −69.5 ± 0.4 mV.
